Assay results published in patent US5252558A (Richter Gedeon Vegyeszeti Gyar RT, priority 1990, dated 1993).
Strings that start with PEPTIDE1 are HELM notation: dots part the residues, brackets hold end groups and non-standard residues.

Test: general procedure: solution-phase peptide synthesis; active esters (Z-Glu(OtBu)-OSu, pAad-Opfp)
Settings: late stage modification step

Substance | step yield (oxalate) | step yield
Glu Asp Ser Gly as the oxalate Sequence 4 | 90% | 
PEPTIDE1{[pAad].E.D.S.G}$$$$V2.0 |  | 48%
